# Experiment: Bone powder binding in vitro (microbiological assay detection)
# Conditions: 1 mg/ml compound in bone meal powder slurry 10 mg/ml in PBS, 37° C., 1 h
row,Molecule,% Bone binding [%]
1,"CCN(CC)CC.CCN(CC)CC.CO[C@H]1/C=C/O[C@@]2(C)Oc3c(C)c(O)c4c(=O)c(c5oc6cc(N7CCN(CC(C)C)CC7)cc(O)c6nc-5c4c3C2=O)NC(=O)/C(C)=C\C=C\[C@H](C)[C@H](OC(=O)CCC(=O)NCCC(=O)NC(P(=O)(O)O)P(=O)(O)O)[C@@H](C)[C@@H](O)[C@@H](C)[C@H](OC(C)=O)[C@@H]1C [Compound 78, 21-O-(3-(2-((bisphosphonomethyl)carbamoyl)ethylcarbamoyl)propanoyl)-1′,4-Didehydro-1-deoxy-1,4-dihydro-3′-hydroxy-5′-[4-(2-methylpropyl)-1-piperazinyl]-1-oxorifamycin VIII]",99.9
2,"CO[C@H]1/C=C/O[C@@]2(C)Oc3c(C)c(O)c4c(=O)c(c5oc6cc(N7CCN(CC(C)C)CC7)cc(O)c6nc-5c4c3C2=O)NC(=O)/C(C)=C\C=C\[C@H](C)[C@H](OC(=O)CCCOC(=O)CCC(=O)NC(P(=O)(O)O)P(=O)(O)O)[C@@H](C)[C@@H](O)[C@@H](C)[C@H](OC(C)=O)[C@@H]1C [Compound 81, 21-O-(4-((3-(bisphosphonomethyl)carbamoyl)propanoyloxy)butanoyl)-1′,4-Didehydro-1-deoxy-1,4-dihydro-3′-hydroxy-5′-[4-(2-methylpropyl)-1-piperazinyl]-1-oxorifamycin VIII]",94.8
3,3-(((4-(2-(3-((bisphosphonomethyl)carbamoyl)propanoyloxy)ethyl)-1-piperazinyl)imino)methyl)rifamycin [Compound 11],95
4,"CCN(CC)CC.CCN(CC)CC.CO[C@H]1/C=C/O[C@@]2(C)Oc3c(C)c(O)c4c(c3C2=O)C2=NC3(CCN(CC(C)C)CC3)NC2=C(NC(=O)/C(C)=C\C=C\[C@H](C)[C@H](OC(=O)CCC(=O)NCCCC(=O)NC(P(=O)(O)O)P(=O)(O)O)[C@@H](C)[C@@H](O)[C@@H](C)[C@H](OC(C)=O)[C@@H]1C)C4=O [Compound 45, 21-O-(3-(3-((bisphosphonomethyl)carbamoyl)propylcarbamoyl)propanoyl)-1′,4-didehydro-1-deoxy-1,4-dihydro-5′-(2-methylpropyl)-1-oxorifamycin XIV]",99.8
5,CCN(CC)CC.CCN(CC)CC.CO[C@H]1/C=C/O[C@@]2(C)Oc3c(C)c(O)c4c(c3C2=O)C2=NC3(CCN(CC(C)C)CC3)N(C(=O)OCOC(=O)CCCC(P(=O)(O)O)P(=O)(O)O)C2=C(NC(=O)/C(C)=C\C=C\[C@H](C)[C@H](O)[C@@H](C)[C@@H](O)[C@@H](C)[C@H](OC(C)=O)[C@@H]1C)C4=O [Compound 50],96.8
6,CO[C@H]1/C=C/O[C@@]2(C)Oc3c(C)c(O)c4c(=O)c(c5oc6cc(N7CCC(OC(=O)CCC(=O)NC(P(=O)(O)O)P(=O)(O)O)CC7)cc(O)c6nc-5c4c3C2=O)NC(=O)/C(C)=C\C=C\[C@H](C)[C@H](O)[C@@H](C)[C@@H](O)[C@@H](C)[C@H](OC(C)=O)[C@@H]1C [Compound 68],99.9
7,CO[C@H]1/C=C/O[C@@]2(C)Oc3c(C)c(O)c4c(=O)c(c5oc6cc(N7CCN(CCC(=O)c8ccc(OCCCC(P(=O)(O)O)P(=O)(O)O)cc8)CC7)cc(O)c6nc-5c4c3C2=O)NC(=O)/C(C)=C\C=C\[C@H](C)[C@H](O)[C@@H](C)[C@@H](O)[C@@H](C)[C@H](OC(C)=O)[C@@H]1C [Compound 71],99.9
8,"CO[C@H]1/C=C/O[C@@]2(C)Oc3c(C)c(O)c4c(=O)c(c5oc6cc(N7CCN(CC(C)C)CC7)cc(O)c6nc-5c4c3C2=O)NC(=O)/C(C)=C\C=C\[C@H](C)[C@H](OC(=O)COC(=O)CCC(=O)NC(P(=O)(O)O)P(=O)(O)O)[C@@H](C)[C@@H](O)[C@@H](C)[C@H](OC(C)=O)[C@@H]1C [Compound 84, 21-O-(2-((3-(bisphosphonomethyl)carbamoyl)propanoyloxy)acetyl)-1′,4-Didehydro-1-deoxy-1,4-dihydro-3′-hydroxy-5′-[4-(2-methylpropyl)-1-piperazinyl]-1-oxorifamycin VIII]",99.8
9,CO[C@H]1/C=C/O[C@@]2(C)Oc3c(C)c(O)c4c(=O)c(c5oc6cc(N7CCN(CCOC(=O)CCC(=O)NC(P(=O)(O)O)P(=O)(O)O)CC7)cc(O)c6nc-5c4c3C2=O)NC(=O)/C(C)=C\C=C\[C@H](C)[C@H](O)[C@@H](C)[C@@H](O)[C@@H](C)[C@H](OC(C)=O)[C@@H]1C.N.N [Compound 62],99.8

# — patent US8404664B2, “Phosphonated Rifamycins and uses thereof for the prevention and treatment of bone and joint infections” (Targanta Therapeutics, Inc., priority 2005, dated 2013)
